This is one part of the list.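 How the source made its calls: active = dose-dependent thermal stabilisation significant by F-test of dose-response against flat model at 10% FDR; inactive = not significant.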

By UniProt entry, the sequences of proteins in these tests, tags left out. Where a name states a change or a piece, a line headed by the entry shows the natural chain unless it says otherwise.
UniProt P46013: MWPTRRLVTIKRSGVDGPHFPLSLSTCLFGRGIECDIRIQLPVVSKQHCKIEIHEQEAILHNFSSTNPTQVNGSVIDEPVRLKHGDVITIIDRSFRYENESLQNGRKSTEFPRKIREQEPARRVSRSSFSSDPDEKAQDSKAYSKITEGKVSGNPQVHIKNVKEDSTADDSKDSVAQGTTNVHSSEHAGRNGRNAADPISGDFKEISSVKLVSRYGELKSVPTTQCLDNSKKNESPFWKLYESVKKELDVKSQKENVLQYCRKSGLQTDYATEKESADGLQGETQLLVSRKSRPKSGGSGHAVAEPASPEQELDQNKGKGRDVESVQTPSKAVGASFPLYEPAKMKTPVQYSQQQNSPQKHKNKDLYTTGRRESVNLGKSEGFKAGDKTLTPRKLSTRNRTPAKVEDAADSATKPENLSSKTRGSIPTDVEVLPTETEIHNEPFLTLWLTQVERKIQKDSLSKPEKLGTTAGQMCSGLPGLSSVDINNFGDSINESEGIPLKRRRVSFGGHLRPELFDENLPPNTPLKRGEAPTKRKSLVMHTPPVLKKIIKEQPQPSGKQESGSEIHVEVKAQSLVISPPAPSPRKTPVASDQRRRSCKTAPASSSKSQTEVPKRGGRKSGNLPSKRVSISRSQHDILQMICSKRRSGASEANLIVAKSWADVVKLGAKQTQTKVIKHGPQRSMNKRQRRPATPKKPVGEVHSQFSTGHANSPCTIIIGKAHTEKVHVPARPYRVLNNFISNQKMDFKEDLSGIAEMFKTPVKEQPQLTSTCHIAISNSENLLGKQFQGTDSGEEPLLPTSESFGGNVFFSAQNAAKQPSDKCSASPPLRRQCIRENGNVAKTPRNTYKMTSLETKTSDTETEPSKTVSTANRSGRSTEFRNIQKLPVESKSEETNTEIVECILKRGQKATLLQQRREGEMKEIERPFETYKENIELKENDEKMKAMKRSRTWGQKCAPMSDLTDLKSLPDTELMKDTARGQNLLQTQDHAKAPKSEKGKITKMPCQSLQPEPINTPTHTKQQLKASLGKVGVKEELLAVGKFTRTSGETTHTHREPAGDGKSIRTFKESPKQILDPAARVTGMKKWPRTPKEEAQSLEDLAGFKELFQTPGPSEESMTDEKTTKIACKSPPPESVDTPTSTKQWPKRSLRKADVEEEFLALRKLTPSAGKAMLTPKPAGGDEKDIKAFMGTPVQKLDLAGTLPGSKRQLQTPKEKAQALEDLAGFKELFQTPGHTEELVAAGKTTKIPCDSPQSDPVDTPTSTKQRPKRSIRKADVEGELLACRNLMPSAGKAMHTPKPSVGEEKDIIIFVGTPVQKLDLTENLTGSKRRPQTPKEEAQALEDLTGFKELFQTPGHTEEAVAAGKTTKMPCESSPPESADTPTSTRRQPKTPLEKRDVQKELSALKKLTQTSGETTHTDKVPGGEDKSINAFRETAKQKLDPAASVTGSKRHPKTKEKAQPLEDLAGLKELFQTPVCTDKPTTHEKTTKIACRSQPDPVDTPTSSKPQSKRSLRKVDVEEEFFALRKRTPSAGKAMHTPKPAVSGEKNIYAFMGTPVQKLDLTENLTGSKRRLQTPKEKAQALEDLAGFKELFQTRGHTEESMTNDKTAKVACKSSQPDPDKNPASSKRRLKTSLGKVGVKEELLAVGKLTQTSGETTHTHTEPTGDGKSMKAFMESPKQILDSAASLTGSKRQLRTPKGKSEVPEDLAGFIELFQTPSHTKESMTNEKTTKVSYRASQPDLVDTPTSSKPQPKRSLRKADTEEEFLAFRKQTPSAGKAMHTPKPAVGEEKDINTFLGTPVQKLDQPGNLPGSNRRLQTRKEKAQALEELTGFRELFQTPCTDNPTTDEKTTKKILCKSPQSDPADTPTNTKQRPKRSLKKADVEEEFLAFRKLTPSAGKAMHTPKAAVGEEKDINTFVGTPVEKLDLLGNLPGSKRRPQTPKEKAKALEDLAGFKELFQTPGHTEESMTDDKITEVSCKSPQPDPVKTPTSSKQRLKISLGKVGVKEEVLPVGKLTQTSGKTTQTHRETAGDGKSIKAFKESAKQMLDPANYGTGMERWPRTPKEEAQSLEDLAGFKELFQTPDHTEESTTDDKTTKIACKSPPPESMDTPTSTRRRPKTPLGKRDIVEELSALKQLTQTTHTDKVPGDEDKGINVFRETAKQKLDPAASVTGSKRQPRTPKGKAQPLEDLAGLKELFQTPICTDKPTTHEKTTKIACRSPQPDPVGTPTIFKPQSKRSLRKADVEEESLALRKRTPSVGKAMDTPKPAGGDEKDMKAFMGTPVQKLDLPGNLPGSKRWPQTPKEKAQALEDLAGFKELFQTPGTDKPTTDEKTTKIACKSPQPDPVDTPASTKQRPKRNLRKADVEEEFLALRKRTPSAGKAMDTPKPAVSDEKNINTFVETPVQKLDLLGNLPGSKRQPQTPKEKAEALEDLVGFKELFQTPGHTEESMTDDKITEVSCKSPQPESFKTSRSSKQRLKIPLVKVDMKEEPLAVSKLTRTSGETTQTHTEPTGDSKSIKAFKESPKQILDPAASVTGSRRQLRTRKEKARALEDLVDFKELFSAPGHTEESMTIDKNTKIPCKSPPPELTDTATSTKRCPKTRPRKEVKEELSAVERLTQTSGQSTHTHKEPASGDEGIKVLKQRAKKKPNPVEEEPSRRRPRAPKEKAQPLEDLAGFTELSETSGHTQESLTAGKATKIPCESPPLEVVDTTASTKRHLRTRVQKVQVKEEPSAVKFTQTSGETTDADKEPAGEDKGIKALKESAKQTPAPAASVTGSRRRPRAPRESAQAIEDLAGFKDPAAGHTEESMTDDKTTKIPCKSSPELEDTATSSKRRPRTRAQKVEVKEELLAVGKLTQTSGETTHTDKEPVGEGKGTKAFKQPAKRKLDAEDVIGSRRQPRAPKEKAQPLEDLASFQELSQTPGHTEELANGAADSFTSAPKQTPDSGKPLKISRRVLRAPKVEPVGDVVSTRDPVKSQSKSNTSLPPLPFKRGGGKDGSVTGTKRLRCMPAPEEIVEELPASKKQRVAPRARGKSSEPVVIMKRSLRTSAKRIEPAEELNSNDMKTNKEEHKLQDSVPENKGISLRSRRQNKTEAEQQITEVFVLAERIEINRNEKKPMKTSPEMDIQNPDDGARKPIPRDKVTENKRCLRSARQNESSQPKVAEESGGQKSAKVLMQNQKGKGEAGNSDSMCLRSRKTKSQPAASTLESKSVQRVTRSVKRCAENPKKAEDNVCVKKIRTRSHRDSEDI
UniProt P49959: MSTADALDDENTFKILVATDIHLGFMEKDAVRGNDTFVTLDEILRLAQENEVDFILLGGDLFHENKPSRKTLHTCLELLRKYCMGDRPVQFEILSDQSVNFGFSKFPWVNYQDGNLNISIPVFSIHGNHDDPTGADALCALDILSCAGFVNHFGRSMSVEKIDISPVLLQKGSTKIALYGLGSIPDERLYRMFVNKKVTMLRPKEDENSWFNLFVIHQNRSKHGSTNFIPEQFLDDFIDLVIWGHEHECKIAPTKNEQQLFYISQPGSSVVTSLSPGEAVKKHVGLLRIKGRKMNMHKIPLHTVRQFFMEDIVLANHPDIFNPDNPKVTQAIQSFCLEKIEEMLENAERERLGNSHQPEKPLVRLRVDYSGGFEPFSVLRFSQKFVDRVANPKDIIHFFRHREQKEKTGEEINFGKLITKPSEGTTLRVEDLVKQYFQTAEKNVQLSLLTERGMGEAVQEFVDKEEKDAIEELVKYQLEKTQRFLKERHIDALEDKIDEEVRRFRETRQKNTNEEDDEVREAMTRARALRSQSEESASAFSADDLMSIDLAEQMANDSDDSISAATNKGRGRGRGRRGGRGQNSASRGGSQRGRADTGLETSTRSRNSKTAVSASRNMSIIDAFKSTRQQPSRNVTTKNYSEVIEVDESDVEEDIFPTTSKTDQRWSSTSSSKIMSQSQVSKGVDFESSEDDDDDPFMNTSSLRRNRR
UniProt P55081: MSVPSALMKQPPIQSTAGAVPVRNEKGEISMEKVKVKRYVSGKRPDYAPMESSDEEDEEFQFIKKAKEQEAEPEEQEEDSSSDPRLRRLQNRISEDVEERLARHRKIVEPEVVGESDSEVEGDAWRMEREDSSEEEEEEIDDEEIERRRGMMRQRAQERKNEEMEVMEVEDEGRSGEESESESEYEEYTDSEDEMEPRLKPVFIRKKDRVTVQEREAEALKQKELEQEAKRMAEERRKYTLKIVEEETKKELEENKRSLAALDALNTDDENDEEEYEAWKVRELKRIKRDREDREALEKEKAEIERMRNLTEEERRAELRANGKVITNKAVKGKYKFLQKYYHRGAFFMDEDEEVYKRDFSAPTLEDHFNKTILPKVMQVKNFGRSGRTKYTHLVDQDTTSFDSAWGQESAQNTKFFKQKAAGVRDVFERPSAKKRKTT
UniProt P11586, whole entry: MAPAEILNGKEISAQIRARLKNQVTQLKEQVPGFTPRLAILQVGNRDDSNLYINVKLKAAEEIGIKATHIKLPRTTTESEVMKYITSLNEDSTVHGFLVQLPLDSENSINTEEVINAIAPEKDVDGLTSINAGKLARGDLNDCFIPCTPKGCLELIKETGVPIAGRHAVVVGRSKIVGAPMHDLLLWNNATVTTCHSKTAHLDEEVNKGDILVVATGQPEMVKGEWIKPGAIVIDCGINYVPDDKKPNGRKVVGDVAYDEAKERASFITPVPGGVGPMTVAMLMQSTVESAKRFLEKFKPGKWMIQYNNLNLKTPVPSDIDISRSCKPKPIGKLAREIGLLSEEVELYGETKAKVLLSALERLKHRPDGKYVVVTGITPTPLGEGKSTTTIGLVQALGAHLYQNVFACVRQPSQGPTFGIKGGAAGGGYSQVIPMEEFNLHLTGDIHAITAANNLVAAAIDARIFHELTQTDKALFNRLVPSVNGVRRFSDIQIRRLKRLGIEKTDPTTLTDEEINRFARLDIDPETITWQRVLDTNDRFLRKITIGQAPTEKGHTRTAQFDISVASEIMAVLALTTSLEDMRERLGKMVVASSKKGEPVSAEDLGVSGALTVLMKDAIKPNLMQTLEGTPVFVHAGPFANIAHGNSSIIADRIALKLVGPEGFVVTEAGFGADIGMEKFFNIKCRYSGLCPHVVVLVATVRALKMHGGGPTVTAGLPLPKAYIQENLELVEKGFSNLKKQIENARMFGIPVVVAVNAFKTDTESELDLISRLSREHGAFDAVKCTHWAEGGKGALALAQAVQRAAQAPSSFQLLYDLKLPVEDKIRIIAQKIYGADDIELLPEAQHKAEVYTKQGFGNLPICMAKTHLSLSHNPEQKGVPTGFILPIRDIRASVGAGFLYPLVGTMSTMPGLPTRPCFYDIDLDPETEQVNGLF
UniProt P02686, whole entry: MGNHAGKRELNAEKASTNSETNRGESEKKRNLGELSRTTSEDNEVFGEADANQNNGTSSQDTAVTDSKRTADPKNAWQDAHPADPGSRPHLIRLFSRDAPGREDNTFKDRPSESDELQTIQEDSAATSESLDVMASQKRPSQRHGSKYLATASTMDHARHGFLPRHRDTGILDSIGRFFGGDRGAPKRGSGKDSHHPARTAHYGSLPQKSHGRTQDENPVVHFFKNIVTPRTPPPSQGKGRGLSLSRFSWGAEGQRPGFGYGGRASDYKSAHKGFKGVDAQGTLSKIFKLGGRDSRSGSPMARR
UniProt Q96GX5: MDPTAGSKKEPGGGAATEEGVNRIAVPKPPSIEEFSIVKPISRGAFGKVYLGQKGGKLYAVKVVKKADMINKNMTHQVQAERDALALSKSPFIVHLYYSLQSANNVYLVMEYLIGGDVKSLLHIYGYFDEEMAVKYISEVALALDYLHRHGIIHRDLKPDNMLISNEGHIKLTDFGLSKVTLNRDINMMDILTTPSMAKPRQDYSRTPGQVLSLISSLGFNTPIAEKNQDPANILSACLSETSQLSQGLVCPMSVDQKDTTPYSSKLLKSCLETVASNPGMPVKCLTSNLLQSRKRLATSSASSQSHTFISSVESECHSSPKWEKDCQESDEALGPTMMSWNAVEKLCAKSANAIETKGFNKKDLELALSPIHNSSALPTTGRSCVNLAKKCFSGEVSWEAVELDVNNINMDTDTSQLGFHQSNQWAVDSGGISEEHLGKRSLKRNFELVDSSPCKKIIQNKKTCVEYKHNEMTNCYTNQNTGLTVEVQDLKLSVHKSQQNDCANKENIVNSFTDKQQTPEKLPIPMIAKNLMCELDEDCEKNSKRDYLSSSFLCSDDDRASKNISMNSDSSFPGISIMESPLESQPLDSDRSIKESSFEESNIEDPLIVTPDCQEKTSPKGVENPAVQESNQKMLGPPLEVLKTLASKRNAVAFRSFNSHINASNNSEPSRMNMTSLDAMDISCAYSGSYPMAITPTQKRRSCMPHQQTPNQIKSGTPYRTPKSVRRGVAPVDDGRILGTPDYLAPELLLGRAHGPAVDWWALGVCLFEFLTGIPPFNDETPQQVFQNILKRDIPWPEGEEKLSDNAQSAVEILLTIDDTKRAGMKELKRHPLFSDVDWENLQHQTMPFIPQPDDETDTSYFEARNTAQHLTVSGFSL

Compound in the experiment: Nc1nc2c(ncn2[C@@H]2O[C@H](COP(=O)(O)OP(=O)(O)OP(=O)(O)O)[C@@H](O)[C@H]2O)c(=O)[nH]1
Briefly: dose-dependent thermal stabilisation call (2D-TPP, DLPTP, 10% FDR) (binary (1 = stabilised)); higher = stabilised by the compound. The settings on record: system: Jurkat gel-filtered lysate; concentration range 1-500 µM.
Consider MAGED2 (UniProt Q9UNF1), for which the “dose-dependent thermal stabilisation call” value was inactive: 0.

MOB4 (UniProt Q9Y3A3): the “dose-dependent thermal stabilisation call” value is inactive: 0.

For the target LUC7L2 (UniProt Q9Y383), the “dose-dependent thermal stabilisation call” value was active: 1. As for MKI67 (UniProt P46013), the “dose-dependent thermal stabilisation call” value is inactive: 0. Under MRE11 (UniProt P49959) stands active: 1.

Turning to MICAL1 (UniProt Q8TDZ2), the “dose-dependent thermal stabilisation call” value is inactive: 0.

As for MFAP1 (UniProt P55081), the “dose-dependent thermal stabilisation call” value is inactive: 0. Turning to MTMR2 (UniProt Q13614), the “dose-dependent thermal stabilisation call” value is inactive: 0. Under MAGOHB (UniProt Q96A72) stands inactive: 0; under MDC1 (UniProt Q14676), inactive: 0; under MTHFD1 (UniProt P11586), inactive: 0. Turning to MYBL2 (UniProt P10244), the “dose-dependent thermal stabilisation call” value is inactive: 0. In the case of MTHFS (UniProt P49914), the “dose-dependent thermal stabilisation call” value was active: 1. For the target N4BP1 (UniProt O75113), the “dose-dependent thermal stabilisation call” value was inactive: 0.

Regarding MAT2B (UniProt Q9NZL9), the “dose-dependent thermal stabilisation call” value is inactive: 0. For the target MAP2K1 (UniProt Q02750), the “dose-dependent thermal stabilisation call” value is active: 1.

For MOB2 (UniProt Q70IA6), the “dose-dependent thermal stabilisation call” value was active: 1. METTL16 (UniProt Q86W50): the “dose-dependent thermal stabilisation call” value was inactive: 0.

Regarding LUC7L (UniProt Q9NQ29), the “dose-dependent thermal stabilisation call” value was active: 1. MIS12 (UniProt Q9H081): the “dose-dependent thermal stabilisation call” value is inactive: 0. Turning to MTCL1 (UniProt Q9Y4B5), the “dose-dependent thermal stabilisation call” value was inactive: 0. On to MBP (UniProt P02686), for which the “dose-dependent thermal stabilisation call” value was inactive: 0. Turning to MPP1 (UniProt Q00013), the “dose-dependent thermal stabilisation call” value is active: 1. In the case of LRRC20 (UniProt Q8TCA0), the “dose-dependent thermal stabilisation call” value is inactive: 0. With MOCS2 (UniProt O96033), the “dose-dependent thermal stabilisation call” value was inactive: 0. As for MASTL (UniProt Q96GX5), the “dose-dependent thermal stabilisation call” value is inactive: 0.

Consider MIF4GD (UniProt A9UHW6), for which the “dose-dependent thermal stabilisation call” value was inactive: 0.
